Measured values taken from PubChem BioAssay AID330 (DTP/NCI, 2004).
The list does not hold the whole screen: its compounds were picked by chemical class. Other doses and runs of a compound may be missing. T/C is the treated group as % of the vehicle group. Some doses have a count of surviving animals in place of a T/C: the source holds a T/C of zero for them, seemingly a mark for toxic or unscored doses. Some survivor counts are full or nearly so, which does not show that the dose was tolerated: the source hardly ever lists a survival T/C far under the control, and the zero likely stands for such cases as well. Survivors were counted at the toxicity check, usually on the fifth day, unless a day is given; later deaths do not show. Schedule codes are those of the source, read here as Q, the interval in days (D) or hours (H), X, the number of doses. Some doses were run more than once; their values stand side by side, smallest first. Where survival is the endpoint, this PubChem deposit counts one and a half times the control or more as active, and values a quarter to a half above the control carry no call in these data; other NCI protocols may use other cut-offs. Additions like (4×) give the number of equal values in this list. Some T/C values carry the count of animals alive at the toxicity check (mostly the fifth day); without a count or a note in brackets, all were alive then. Some T/C values are marked as having no survivor count here; that says nothing about deaths at the dose.

Tested on: P388 leukemia ip, CD2F1 mice, survival T/C
Experiment: NCI In Vivo Anticancer Drug Screen. Data for tumor model P388 Leukemia (intraperitoneal) in CD2F1 (CDF1) mice
Conditions: T/C endpoint: median survival time, higher T/C = longer survival
[1] = dose: 25.0 mg/kg/injection, schedule: Q01DX009 (ip), vehicle: Klucel (hydroxypropylcellulose) (HPC)
[2] = dose: 50.0 mg/kg/injection, schedule: Q01DX009 (ip), vehicle: Klucel (hydroxypropylcellulose) (HPC)
[3] = dose: 100.0 mg/kg/injection, schedule: Q01DX009 (ip), vehicle: Klucel (hydroxypropylcellulose) (HPC)
[4] = dose: 200.0 mg/kg/injection, schedule: Q01DX009 (ip), vehicle: Klucel (hydroxypropylcellulose) (HPC)
[5] = dose: 60.0 mg/kg/injection, schedule: Q01DX005 (ip), vehicle: saline with Tween-80
[6] = dose: 120.0 mg/kg/injection, schedule: Q01DX005 (ip), vehicle: saline with Tween-80
[7] = dose: 240.0 mg/kg/injection, schedule: Q01DX005 (ip), vehicle: saline with Tween-80
[8] = dose: 75.0 mg/kg/injection, schedule: Q04DX003 (ip), vehicle: Klucel (hydroxypropylcellulose) (HPC)
[9] = dose: 150.0 mg/kg/injection, schedule: Q04DX003 (ip), vehicle: Klucel (hydroxypropylcellulose) (HPC)
[10] = dose: 50.0 mg/kg/injection, schedule: Q01DX009 (ip), vehicle: saline with Tween-80
[11] = dose: 100.0 mg/kg/injection, schedule: Q01DX009 (ip), vehicle: saline with Tween-80
[12] = dose: 200.0 mg/kg/injection, schedule: Q01DX009 (ip), vehicle: saline with Tween-80
[13] = dose: 100.0 mg/kg/injection, schedule: Q04DX003 (ip), vehicle: saline
[14] = dose: 200.0 mg/kg/injection, schedule: Q04DX003 (ip), vehicle: saline
[15] = dose: 400.0 mg/kg/injection, schedule: Q04DX003 (ip), vehicle: saline
[16] = dose: 25.0 mg/kg/injection, schedule: Q01DX009 (ip), vehicle: saline with Tween-80
[17] = dose: 3.12 mg/kg/injection, schedule: Q01DX009 (ip), vehicle: Klucel (hydroxypropylcellulose) (HPC)
[18] = dose: 6.25 mg/kg/injection, schedule: Q01DX009 (ip), vehicle: Klucel (hydroxypropylcellulose) (HPC)
[19] = dose: 12.5 mg/kg/injection, schedule: Q01DX009 (ip), vehicle: Klucel (hydroxypropylcellulose) (HPC)

In the case of `NC(=O)N/N=C/c1ccc(N(CCCl)CCCl)cc1`, the T/C [1] is reported as 98 and 126 % of control, the T/C [2] is reported as 106 and 126 % of control and the T/C [3] is reported as 95 and 153 % of control. The T/C [4] was 156 and 176 % of control and the T/C (dose: 400.0 mg/kg/injection, schedule: Q01DX009 (ip), vehicle: Klucel (hydroxypropylcellulose) (HPC)) was 185 % of control.
In the case of `OC(SCCSC(O)C(Cl)(Cl)Cl)C(Cl)(Cl)Cl` (stereo unspecified), the T/C [5] is reported as 119 % of control, the T/C [6] is reported as 126 % of control and the T/C [7] is reported as 119 % of control.
In the case of `ClCCN(CCCl)c1cccc(CN2CCCCC2)c1`, the survivor count [8] is reported as 0 of 6, the survivor count [9] is reported as 3 of 6 and the survivor count (dose: 300.0 mg/kg/injection, schedule: Q04DX003 (ip), vehicle: Klucel (hydroxypropylcellulose) (HPC)) is reported as 2 of 6.
For `Cc1cc(N(CCCl)CCCl)c2ccccc2c1`, the T/C (dose: 37.5 mg/kg/injection, schedule: Q04DX003 (ip), vehicle: Klucel (hydroxypropylcellulose) (HPC)) was 195 % of control [5 of 6 alive], the T/C [8] was 255 % of control and the survivor count [9] was 5 of 6.
For `N/C(=N\[N+](=O)[O-])N(CCCl)N=O`, the T/C (dose: 5.0 mg/kg/injection, schedule: Q01DX009 (ip), vehicle: saline) was 100 % of control, the T/C (dose: 10.0 mg/kg/injection, schedule: Q01DX009 (ip), vehicle: saline) was 104 % of control and the T/C (dose: 20.0 mg/kg/injection, schedule: Q01DX009 (ip), vehicle: saline) was 118 % of control. The T/C (dose: 40.0 mg/kg/injection, schedule: Q01DX009 (ip), vehicle: saline) was 127 % of control.
For `NNC(NN)NN.n1nc(-c2nn[nH]n2)n[nH]1`, the T/C [2] was 95 % of control [survivor count not shown], the T/C [3] was 89 % of control [survivor count not shown] and the T/C [4] was 91 % of control [survivor count not shown].
`O=[N+]([O-])c1cc([N+](=O)[O-])c(-c2cc(-c3c([N+](=O)[O-])cc([N+](=O)[O-])cc3[N+](=O)[O-])nc(-c3c([N+](=O)[O-])cc([N+](=O)[O-])cc3[N+](=O)[O-])n2)c([N+](=O)[O-])c1` was tested, and the T/C [10] was 100 % of control, the T/C [11] was 97 % of control and the T/C [12] was 106 % of control [5 of 6 alive].
`COc1c([N+](=O)[O-])c(N)c([N+](=O)[O-])c(OC)c1[N+](=O)[O-]` was tested, and the T/C [13] was 113 % of control, the T/C [14] was 105 % of control and the T/C [15] was 123 % of control.
`CN=C(NP(=O)(Oc1ccccc1)Oc1ccccc1)Oc1ccccc1` was tested, and the T/C (dose: 12.5 mg/kg/injection, schedule: Q01DX009 (ip), vehicle: distilled water + Tween-80) was 105 % of control, the T/C (dose: 25.0 mg/kg/injection, schedule: Q01DX009 (ip), vehicle: distilled water + Tween-80) was 99 % of control and the T/C (dose: 50.0 mg/kg/injection, schedule: Q01DX009 (ip), vehicle: distilled water + Tween-80) was 113 % of control. The T/C (dose: 100.0 mg/kg/injection, schedule: Q01DX009 (ip), vehicle: distilled water + Tween-80) was 93 % of control.
With `CC(C)OP(C)(=O)O.[Nd]` the T/C [16] was 95 % of control [survivor count not shown], the T/C [10] was 87 % of control [survivor count not shown] and the T/C [11] was 91 % of control [survivor count not shown]. For the same molecule, the T/C (dose: 100.0 mg/kg/injection, schedule: Q04DX003 (ip), vehicle: saline with Tween-80) was 106 % of control [survivor count not shown], the T/C [12] was 96 % of control [survivor count not shown] and the T/C (dose: 200.0 mg/kg/injection, schedule: Q04DX003 (ip), vehicle: saline with Tween-80) was 97 % of control [survivor count not shown]. For the same molecule, the T/C (dose: 400.0 mg/kg/injection, schedule: Q04DX003 (ip), vehicle: saline with Tween-80) was 95 % of control [survivor count not shown].
In the case of `O=[N+]([O-])c1cccc(S(=O)(=O)N/N=C/c2cc([N+](=O)[O-])cc([N+](=O)[O-])c2O)c1`, the T/C [5] is reported as 107 % of control, the T/C [6] is reported as 103 % of control and the survivor count [7] is reported as 1 of 6.
For `[N-]=[N+]=NC(=O)CCCCC(=O)N=[N+]=[N-]`, the T/C [2] was 109 % of control [5 of 6 alive], the T/C [3] was 89 % of control and the survivor count [4] was 4 of 6.
`CC(C)OP(C)(=O)O.[Ce]` was tested, and the T/C (dose: 12.5 mg/kg/injection, schedule: Q01DX009 (ip), vehicle: saline with Tween-80) was 99 % of control [survivor count not shown], the T/C [16] was 92 % of control [survivor count not shown] and the T/C [10] was 89 % of control [survivor count not shown]. The T/C [11] was 104 % of control [survivor count not shown].
In the case of `ICCN(CCI)c1cccc2ccccc12`, the T/C (dose: 0.39 mg/kg/injection, schedule: Q01DX009 (ip), vehicle: Klucel (hydroxypropylcellulose) (HPC)) is reported as 148 % of control, the T/C (dose: 0.78 mg/kg/injection, schedule: Q01DX009 (ip), vehicle: Klucel (hydroxypropylcellulose) (HPC)) is reported as 141 % of control and the T/C (dose: 1.56 mg/kg/injection, schedule: Q01DX009 (ip), vehicle: Klucel (hydroxypropylcellulose) (HPC)) is reported as 119 and 170 % of control. The T/C [17] was 121 % of control, the survivor count [17] was 6 of 6 and the T/C (dose: 3.13 mg/kg/injection, schedule: Q01DX009 (ip), vehicle: Klucel (hydroxypropylcellulose) (HPC)) was 153 % of control. For the same molecule, the T/C [18] was 92, 158, 164 % of control, the survivor count [18] was 6 of 6 and the T/C [19] was 95 [5 of 6 alive], 169, 179 % of control. The survivor count [19] was 5 of 6, the T/C [1] was 111 % of control and the survivor count [1] was 5 of 6. For the same molecule, the survivor count [2] was 2 of 6 and 6 of 6, the survivor count [3] was 6 of 6 and the survivor count [4] was 4 of 6.
For `CCN(CCNCCCNCCSP(=O)(O)O)c1cccc(C)c1`, the T/C (dose: 1.5 mg/kg/injection, schedule: Q01DX009 (ip), vehicle: saline with Tween-80) was 100 % of control, the T/C (dose: 3.0 mg/kg/injection, schedule: Q01DX009 (ip), vehicle: saline with Tween-80) was 104 % of control and the T/C (dose: 6.0 mg/kg/injection, schedule: Q01DX009 (ip), vehicle: saline with Tween-80) was 109 % of control.
`C1CN1.NC(CO)C(=O)O.Nc1ncnc2nc[nH]c12` was tested, and the T/C [13] was 100 % of control, the T/C [14] was 91 % of control and the T/C [15] was 88 % of control [4 of 6 alive].
For `CC(C)OP(C)(=O)O.[Eu]`, the T/C [16] was 98 % of control [survivor count not shown], the T/C [10] was 89 [survivor count not shown] and 91 % of control [survivor count not shown] and the T/C [11] was 91 % of control [survivor count not shown]. The T/C [12] was 90 % of control [survivor count not shown].
With `COc1ccc(C2=CCN(c3ccc(C)cc3)P(=O)(Cl)O2)cc1` (stereo unspecified) the T/C (dose: 25.0 mg/kg/injection, schedule: Q01DX005 (ip), vehicle: Klucel (hydroxypropylcellulose) (HPC), evaluated on day 20) was 115 % of control, the T/C (dose: 25.0 mg/kg/injection, schedule: Q01DX005 (ip), vehicle: Klucel (hydroxypropylcellulose) (HPC), evaluated on day 30) was 105 % of control and the T/C (dose: 50.0 mg/kg/injection, schedule: Q01DX005 (ip), vehicle: Klucel (hydroxypropylcellulose) (HPC), evaluated on day 20) was 110 % of control. For the same molecule, the T/C (dose: 50.0 mg/kg/injection, schedule: Q01DX005 (ip), vehicle: Klucel (hydroxypropylcellulose) (HPC), evaluated on day 30) was 108 % of control (2×), the T/C (dose: 100.0 mg/kg/injection, schedule: Q01DX005 (ip), vehicle: Klucel (hydroxypropylcellulose) (HPC), evaluated on day 20) was 111 % of control and the T/C (dose: 100.0 mg/kg/injection, schedule: Q01DX005 (ip), vehicle: Klucel (hydroxypropylcellulose) (HPC), evaluated on day 30) was 107 and 117 % of control. The T/C (dose: 200.0 mg/kg/injection, schedule: Q01DX005 (ip), vehicle: Klucel (hydroxypropylcellulose) (HPC), evaluated on day 20) was 112 % of control [5 of 6 alive] and the T/C (dose: 200.0 mg/kg/injection, schedule: Q01DX005 (ip), vehicle: Klucel (hydroxypropylcellulose) (HPC), evaluated on day 30) was 115 and 127 % of control.
